Measurements reported in the supplement of paper PMC10849652.
Some of the results follow.

By UniProt entry, the sequences of proteins in these tests, tags left out. Where a name states a change or a piece, a line headed by the entry shows the natural chain unless it says otherwise.
UniProt O14907: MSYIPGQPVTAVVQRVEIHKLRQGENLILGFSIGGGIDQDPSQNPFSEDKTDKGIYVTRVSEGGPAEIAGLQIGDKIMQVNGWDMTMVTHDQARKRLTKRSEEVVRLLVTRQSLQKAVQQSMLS
UniProt Q4KMP7: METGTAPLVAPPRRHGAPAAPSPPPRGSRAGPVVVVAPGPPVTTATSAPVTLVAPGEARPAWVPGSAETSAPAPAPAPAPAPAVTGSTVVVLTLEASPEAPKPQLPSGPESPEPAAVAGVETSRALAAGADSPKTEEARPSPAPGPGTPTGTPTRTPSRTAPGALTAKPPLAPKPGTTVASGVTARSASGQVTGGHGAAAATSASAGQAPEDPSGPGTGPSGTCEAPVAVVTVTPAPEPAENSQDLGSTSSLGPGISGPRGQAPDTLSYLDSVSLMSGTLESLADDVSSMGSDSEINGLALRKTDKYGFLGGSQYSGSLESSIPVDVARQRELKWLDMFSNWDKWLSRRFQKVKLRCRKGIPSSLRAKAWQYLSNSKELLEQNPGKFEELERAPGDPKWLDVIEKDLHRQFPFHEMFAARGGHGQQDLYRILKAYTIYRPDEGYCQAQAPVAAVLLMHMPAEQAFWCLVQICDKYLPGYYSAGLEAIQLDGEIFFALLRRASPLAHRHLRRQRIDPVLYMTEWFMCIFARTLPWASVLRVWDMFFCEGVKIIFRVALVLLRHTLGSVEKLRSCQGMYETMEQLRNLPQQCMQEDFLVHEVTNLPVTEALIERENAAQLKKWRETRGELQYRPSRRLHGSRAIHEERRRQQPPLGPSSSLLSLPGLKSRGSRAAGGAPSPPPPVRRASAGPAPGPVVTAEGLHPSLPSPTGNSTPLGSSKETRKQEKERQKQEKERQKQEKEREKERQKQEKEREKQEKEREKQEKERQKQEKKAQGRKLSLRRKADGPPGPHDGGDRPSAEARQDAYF
UniProt Q96BZ9: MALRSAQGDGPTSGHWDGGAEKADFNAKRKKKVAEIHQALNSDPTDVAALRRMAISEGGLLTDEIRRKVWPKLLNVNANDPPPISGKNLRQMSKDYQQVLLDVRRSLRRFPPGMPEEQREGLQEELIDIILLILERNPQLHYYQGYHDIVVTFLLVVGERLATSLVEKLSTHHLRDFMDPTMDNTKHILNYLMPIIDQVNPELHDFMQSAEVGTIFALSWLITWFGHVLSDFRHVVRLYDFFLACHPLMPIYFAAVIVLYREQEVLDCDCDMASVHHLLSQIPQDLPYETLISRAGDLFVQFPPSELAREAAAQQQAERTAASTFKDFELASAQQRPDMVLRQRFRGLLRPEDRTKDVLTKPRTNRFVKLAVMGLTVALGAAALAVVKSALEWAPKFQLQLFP
UniProt A6NFQ2: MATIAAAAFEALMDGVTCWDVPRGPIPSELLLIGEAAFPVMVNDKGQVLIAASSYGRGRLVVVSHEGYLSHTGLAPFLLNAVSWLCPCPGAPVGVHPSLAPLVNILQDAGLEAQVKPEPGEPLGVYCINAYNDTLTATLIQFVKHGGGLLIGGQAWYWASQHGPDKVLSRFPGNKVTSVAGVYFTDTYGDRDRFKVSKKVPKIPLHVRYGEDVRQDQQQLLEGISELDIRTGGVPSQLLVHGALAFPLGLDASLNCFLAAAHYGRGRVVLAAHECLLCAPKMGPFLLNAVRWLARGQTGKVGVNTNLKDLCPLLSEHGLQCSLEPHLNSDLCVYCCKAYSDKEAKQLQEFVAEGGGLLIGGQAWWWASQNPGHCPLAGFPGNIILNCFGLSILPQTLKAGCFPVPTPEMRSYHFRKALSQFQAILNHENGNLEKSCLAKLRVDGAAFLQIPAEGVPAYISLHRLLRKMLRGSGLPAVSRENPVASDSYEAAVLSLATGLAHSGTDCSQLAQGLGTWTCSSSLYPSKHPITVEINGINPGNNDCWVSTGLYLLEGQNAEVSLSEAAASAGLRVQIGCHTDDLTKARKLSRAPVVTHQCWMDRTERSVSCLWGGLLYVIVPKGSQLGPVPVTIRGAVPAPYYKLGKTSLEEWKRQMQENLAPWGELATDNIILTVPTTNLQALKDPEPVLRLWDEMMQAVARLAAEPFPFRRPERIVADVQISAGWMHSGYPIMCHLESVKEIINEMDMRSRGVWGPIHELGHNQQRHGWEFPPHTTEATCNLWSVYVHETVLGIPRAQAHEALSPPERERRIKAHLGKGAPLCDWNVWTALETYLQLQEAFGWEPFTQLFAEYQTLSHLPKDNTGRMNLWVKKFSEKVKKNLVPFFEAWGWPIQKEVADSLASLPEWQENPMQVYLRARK
UniProt Q9Y4C2: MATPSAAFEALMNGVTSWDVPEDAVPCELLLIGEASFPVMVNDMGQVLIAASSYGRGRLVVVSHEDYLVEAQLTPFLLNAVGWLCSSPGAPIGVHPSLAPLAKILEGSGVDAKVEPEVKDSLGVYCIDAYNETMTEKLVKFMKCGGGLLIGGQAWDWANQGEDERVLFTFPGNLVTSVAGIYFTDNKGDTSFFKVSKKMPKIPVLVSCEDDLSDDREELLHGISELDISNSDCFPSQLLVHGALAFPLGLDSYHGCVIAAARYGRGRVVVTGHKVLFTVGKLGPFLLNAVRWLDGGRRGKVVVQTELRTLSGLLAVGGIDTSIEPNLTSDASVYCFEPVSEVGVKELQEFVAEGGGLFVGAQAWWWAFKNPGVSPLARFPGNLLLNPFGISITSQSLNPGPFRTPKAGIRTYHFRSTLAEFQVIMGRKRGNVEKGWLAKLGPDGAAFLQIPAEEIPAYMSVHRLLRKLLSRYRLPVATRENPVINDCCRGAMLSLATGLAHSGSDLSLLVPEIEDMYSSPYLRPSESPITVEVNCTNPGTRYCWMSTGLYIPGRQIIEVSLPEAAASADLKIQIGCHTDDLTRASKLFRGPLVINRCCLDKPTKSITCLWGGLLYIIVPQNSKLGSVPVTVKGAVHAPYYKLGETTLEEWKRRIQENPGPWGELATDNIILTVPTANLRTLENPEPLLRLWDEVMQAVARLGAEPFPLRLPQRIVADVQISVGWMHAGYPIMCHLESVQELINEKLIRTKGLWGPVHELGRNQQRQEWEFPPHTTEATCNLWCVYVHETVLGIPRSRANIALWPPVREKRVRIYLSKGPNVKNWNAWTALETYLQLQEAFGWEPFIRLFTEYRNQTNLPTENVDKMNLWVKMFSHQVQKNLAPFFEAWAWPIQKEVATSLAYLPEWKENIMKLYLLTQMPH
UniProt O95551: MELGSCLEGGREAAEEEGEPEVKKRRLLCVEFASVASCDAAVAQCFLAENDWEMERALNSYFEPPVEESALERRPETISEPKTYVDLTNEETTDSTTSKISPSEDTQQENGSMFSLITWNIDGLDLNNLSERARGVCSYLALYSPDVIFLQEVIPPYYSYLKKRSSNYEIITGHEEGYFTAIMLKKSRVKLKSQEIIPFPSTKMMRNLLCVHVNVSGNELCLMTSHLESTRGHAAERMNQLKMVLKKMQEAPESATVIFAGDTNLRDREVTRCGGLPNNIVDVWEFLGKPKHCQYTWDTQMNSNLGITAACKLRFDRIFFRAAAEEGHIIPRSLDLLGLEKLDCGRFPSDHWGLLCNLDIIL
UniProt Q9Y6J9: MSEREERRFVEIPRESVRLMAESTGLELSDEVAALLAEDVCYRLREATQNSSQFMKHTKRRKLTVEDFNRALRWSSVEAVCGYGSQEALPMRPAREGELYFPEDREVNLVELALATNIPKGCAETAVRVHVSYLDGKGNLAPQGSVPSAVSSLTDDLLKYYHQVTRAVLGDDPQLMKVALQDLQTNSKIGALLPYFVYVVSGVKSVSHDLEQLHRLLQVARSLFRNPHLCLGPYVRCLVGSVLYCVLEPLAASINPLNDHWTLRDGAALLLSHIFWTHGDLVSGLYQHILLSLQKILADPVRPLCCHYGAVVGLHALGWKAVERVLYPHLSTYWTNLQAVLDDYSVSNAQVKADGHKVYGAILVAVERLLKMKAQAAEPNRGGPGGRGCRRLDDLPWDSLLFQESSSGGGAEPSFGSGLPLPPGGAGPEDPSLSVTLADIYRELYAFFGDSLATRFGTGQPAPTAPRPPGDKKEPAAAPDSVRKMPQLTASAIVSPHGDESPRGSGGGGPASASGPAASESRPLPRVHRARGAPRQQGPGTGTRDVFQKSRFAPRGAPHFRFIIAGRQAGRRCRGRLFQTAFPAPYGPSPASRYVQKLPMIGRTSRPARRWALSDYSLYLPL
UniProt Q9BQ70: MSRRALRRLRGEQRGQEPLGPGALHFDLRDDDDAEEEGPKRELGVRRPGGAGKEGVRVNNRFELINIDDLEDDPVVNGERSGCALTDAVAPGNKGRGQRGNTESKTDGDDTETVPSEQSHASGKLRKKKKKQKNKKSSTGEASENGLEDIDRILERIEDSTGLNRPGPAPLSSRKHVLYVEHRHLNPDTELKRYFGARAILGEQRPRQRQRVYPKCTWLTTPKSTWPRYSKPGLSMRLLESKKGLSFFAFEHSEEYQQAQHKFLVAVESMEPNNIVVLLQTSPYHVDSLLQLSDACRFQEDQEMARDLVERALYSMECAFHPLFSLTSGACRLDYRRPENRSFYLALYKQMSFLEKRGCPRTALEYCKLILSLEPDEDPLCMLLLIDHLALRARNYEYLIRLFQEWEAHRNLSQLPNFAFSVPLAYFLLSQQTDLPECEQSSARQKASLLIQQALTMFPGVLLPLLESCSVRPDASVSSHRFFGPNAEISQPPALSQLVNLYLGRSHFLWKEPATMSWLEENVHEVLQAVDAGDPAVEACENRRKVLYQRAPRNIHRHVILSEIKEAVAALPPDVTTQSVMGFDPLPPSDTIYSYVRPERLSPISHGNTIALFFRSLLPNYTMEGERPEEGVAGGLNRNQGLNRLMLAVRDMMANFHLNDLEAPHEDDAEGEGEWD
UniProt Q92844: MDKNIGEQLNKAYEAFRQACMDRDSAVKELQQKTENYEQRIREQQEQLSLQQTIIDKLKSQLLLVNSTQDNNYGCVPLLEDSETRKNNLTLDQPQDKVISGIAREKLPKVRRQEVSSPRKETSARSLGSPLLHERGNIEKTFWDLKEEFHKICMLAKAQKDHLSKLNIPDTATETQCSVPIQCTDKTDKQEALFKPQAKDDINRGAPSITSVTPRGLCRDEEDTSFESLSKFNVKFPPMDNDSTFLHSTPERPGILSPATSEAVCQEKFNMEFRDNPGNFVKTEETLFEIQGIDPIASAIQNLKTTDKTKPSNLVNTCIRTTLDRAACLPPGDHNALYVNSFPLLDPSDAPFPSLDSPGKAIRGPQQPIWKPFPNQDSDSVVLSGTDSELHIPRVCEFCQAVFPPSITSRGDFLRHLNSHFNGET
UniProt Q9BT92: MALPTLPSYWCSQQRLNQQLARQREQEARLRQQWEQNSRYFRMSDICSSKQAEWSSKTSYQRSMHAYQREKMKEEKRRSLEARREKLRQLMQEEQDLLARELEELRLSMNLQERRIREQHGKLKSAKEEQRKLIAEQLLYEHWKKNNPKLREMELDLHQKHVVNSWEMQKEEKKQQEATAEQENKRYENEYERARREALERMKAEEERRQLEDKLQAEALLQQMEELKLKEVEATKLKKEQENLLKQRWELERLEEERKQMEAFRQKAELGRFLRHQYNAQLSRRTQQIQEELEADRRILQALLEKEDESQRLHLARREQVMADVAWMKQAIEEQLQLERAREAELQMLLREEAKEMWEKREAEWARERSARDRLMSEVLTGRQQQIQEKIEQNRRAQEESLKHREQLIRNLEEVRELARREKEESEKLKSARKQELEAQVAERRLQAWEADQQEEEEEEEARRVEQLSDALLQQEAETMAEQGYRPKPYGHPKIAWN
UniProt Q5VWP2: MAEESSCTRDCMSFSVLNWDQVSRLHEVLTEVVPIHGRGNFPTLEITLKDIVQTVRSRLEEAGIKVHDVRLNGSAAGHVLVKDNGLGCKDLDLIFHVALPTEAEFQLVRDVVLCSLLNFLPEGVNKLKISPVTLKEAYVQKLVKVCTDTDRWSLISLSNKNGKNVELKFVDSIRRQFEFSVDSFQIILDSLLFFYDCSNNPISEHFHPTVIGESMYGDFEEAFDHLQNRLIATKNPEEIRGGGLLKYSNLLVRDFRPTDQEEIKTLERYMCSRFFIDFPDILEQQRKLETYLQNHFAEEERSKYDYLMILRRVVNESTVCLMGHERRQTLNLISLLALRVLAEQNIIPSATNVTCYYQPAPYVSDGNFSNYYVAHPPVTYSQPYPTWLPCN
UniProt Q15545, whole entry, looked up: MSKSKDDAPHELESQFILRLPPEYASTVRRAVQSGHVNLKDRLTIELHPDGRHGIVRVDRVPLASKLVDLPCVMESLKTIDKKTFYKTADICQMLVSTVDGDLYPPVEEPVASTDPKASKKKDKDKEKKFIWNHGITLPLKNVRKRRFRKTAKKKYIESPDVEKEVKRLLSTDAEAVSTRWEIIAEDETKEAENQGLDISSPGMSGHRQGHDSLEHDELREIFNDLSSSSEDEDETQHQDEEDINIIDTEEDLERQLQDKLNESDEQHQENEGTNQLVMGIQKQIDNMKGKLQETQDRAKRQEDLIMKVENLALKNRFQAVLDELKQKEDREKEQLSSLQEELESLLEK

Legend:
Experiment in all cases: log2 fold change, soluble protein after heating vs DMSO (PISA); higher = thermal stabilisation; K562 lysate, 10 uM; active = over 0.2 and 3.5 SD of the protein, either way, in both replicates (recomputed)
erlotinib = compound: C#Cc1cccc(Nc2ncnc3cc(OCCOC)c(OCCOC)cc23)c1 [erlotinib]
Method in brief: (§1)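 Log-two fold change in thermal stability relative to solvent controls is reported from duplicates. For each sample, crude K562 extract from dounce-homogenised pellets in PBS pH 7.4 with 1 mM MgCl2, at 1 mg/mL protein, was treated with 10 μM compound for 30 min. Aliquots heated for 3 min across 48°C-58°C were pooled, brought to 0.5% NP-40 at 4°C and cleared at 21,000xg for 90 min. The supernatant was quantified by TMTpro 16plex LC-MS/MS with channel sums equalised.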

[1] = compound: C/C(=N\NC(=O)C1=CC(=CC=C1)S(=O)(=O)N2CCOCC2)/C3=C(C=CC(=C3)Cl)O
Method in brief: as §1

[2] = compound: C1=CC(=CC=C1C2=NC3=C(N2)C=C(C=C3)C(=O)N)OC4=CC=C(C=C4)Cl
Method in brief: as §1

[3] = compound: C1=CC2=C(C=CC(=C2)/C=C\3/C(=O)NC(=NCC4=CC=CS4)S3)N=C1
Method in brief: as §1

[4] = compound: C1=CC2=NC=CN=C2C=C1/C=C/3\C(=O)NC(=O)S3
Method in brief: as §1

[5] = compound: C1=CC=C(C=C1)C2=NC(=C(N2)C3=CC=NC=C3)C4=CC(=C(C=C4)Cl)O
Method in brief: as §1

[6] = compound: C1=CC=C2C(=C1)C3=NNC4=CC=CC(=C43)C2=O
Method in brief: as §1

[7] = compound: C1CCN(C1)C(=O)NC2=CC=CC(=C2)NC3=NC=C(C(=N3)NCCC4=CN=CN4)Br
Method in brief: as §1

[8] = compound: C1CN(CCC1(CC2=CC=C(C=C2)Cl)N)C3=NC=NC4=C3C=CN4
Method in brief: as §1

IRAK-1-4 Inhibitor I = compound: C1COCCN1CCN2C3=CC=CC=C3N=C2NC(=O)C4=CC(=CC=C4)[N+](=O)[O-] [IRAK-1-4 Inhibitor I]
Method in brief: as §1

ibrutinib = compound: C=CC(=O)N1CCC[C@@H](n2nc(-c3ccc(Oc4ccccc4)cc3)c3c(N)ncnc32)C1 [ibrutinib]
Method in brief: as §1

[9] = compound: CC(=O)c1cnc2ccc(-c3cc(Cl)c(O)c(Cl)c3)nc2c1N[C@H]1CC[C@H](CN(C)C)CC1
Method in brief: as §1

ralimetinib = compound: CC(C)(C)Cn1c(N)nc2ccc(-c3[nH]c(C(C)(C)C)nc3-c3ccc(F)cc3)nc21 [ralimetinib]
Method in brief: as §1

[10] = compound: CC(C)(O)CC(=O)NCCn1ccc2ncnc(Nc3ccc(Oc4cccc(C(F)(F)F)c4)c(Cl)c3)c21
Method in brief: as §1

[11] = compound: CC(C)C1=C2N=C(C=C(N2N=C1)NCC3=CC=CC=C3)NCCCCCCN
Method in brief: as §1

[12] = compound: CC1=C(C(CC(=O)N1)C2=CC=C(C=C2)C(F)(F)F)C(=O)NC3=C(C=C4C(=C3)C=NN4)F
Method in brief: as §1

[13] = compound: CC1=C(C2=C(C=C1)C(=O)C3=CC=CC=C3N2CCCN)C
Method in brief: as §1

[14] = compound: CC1=C(C=C(C=C1)NC(=O)C2=CC(=CC=C2)C(C)(C)C#N)NC3=CC4=C(C=C3)N=CN(C4=O)C
Method in brief: as §1

[15] = compound: CC1=C(C=C(C=C1)NC(=O)C2=CC(=CC=C2)N(C)C)NC(=O)C3=CC=C(C=C3)O
Method in brief: as §1

[16] = compound: CC1=CC=C(C=C1)SC2=C3C=C(SC3=CN=C2)C(=O)N
Method in brief: as §1

Measured: log2 fold change

TARDBP (UniProt Q13148)
inactive: erlotinib -0.017 | [1] -0.092 | [2] 0.018 | [3] 0.004 | [4] 0.09 | [5] -0.133 | [6] -0.036 | [7] -0.065 | [8] 0.032 | IRAK-1-4 Inhibitor I 0.048 | ibrutinib -0.161 | [9] 0.052 | ralimetinib -0.004 | [10] -0.076 | [11] 0.015 | [12] 0.019 | [13] 0.068 | [14] -0.059 | [15] 0.01 | [16] 0.019

TBC1D2 (UniProt Q9BYX2)
inactive: erlotinib 0.029 | [1] -0.033 | [2] 0.048 | [3] -0.006 | [4] -0.031 | [5] 0.003 | [6] -0.002 | [7] -0.008 | [8] 0.041 | IRAK-1-4 Inhibitor I 0.038 | ibrutinib 0.06 | [9] 0 | ralimetinib 0.084 | [10] -0.037 | [11] -0.004 | [12] -0.035 | [13] -0.029 | [14] 0.017 | [15] 0 | [16] -0.036

TAX1BP3 (UniProt O14907)
inactive: erlotinib -0.052 | [1] -0.213 | [2] -0.048 | [3] 0.136 | [4] -0.049 | [5] -0.128 | [6] -0.291 | [7] -0.06 | [8] -0.109 | IRAK-1-4 Inhibitor I -0.165 | ibrutinib 0.042 | [9] 0.048 | ralimetinib 0.024 | [10] 0.074 | [11] 0.079 | [13] 0.145 | [15] 0.023 | [16] -0.015

TBC1D10B (UniProt Q4KMP7)
inactive: erlotinib 0.028 | [1] -0.101 | [2] 0.038 | [3] 0.02 | [4] -0.019 | [5] -0.015 | [6] 0.022 | [7] 0.004 | [8] 0.045 | IRAK-1-4 Inhibitor I -0.024 | ibrutinib -0.011 | [9] -0.025 | ralimetinib 0.004 | [10] -0.014 | [11] -0.043 | [12] 0.003 | [13] 0.011 | [14] -0.001 | [15] 0.029 | [16] -0.051

TANGO6 (UniProt Q9C0B7)
inactive: erlotinib 0.045 | [1] -0.04 | [2] 0.012 | [3] -0.011 | [4] 0.009 | [5] -0.049 | [6] -0.048 | [7] 0.007 | [8] 0.023 | IRAK-1-4 Inhibitor I 0.048 | ibrutinib -0.056 | [9] 0.039 | ralimetinib 0.023 | [10] 0.02 | [11] -0.067 | [12] -0.028 | [13] -0.017 | [14] -0.013 | [15] -0.02 | [16] -0.011

TBC1D20 isoform 3 (UniProt Q96BZ9)
inactive: erlotinib -0.073 | [1] 0.142 | [2] -0.113 | [3] 0.043 | [4] 0.117 | [5] -0.038 | [6] -0.018 | [7] 0.033 | [8] 0.023 | IRAK-1-4 Inhibitor I 0.132 | ibrutinib 0.078 | [9] -0.016 | ralimetinib 0.001 | [10] -0.14 | [11] -0.082 | [13] 0.05 | [14] -0.171 | [15] 0.019 | [16] -0.005

TCAF2 (UniProt A6NFQ2)
inactive: erlotinib -0.006 | [1] -0.218 | [2] -0.003 | [3] -0.059 | [4] -0.038 | [5] -0.027 | [6] -0.033 | [7] -0.022 | [8] -0.047 | IRAK-1-4 Inhibitor I -0.005 | ibrutinib 0.009 | [9] -0.009 | ralimetinib 0.078 | [10] -0.017 | [11] 0.013 | [12] 0.022 | [13] 0.055 | [14] -0.005 | [15] -0.021 | [16] 0.063

TCAF1 (UniProt Q9Y4C2)
inactive: erlotinib -0.013 | [1] -0.022 | [2] -0.037 | [3] -0.005 | [4] 0.005 | [5] 0.025 | [6] -0.079 | [7] -0.032 | [8] 0.005 | IRAK-1-4 Inhibitor I -0.014 | ibrutinib 0.03 | [9] -0.013 | ralimetinib 0.029 | [10] -0.005 | [11] 0.002 | [12] -0.01 | [13] 0.013 | [14] -0.047 | [15] 0.047 | [16] 0.035

TDP2 isoform 2 (UniProt O95551)
inactive: erlotinib 0.006 | [1] 0.027 | [2] 0.016 | [3] -0.035 | [4] 0.004 | [5] -0.006 | [6] -0.003 | [7] -0.014 | [8] -0.025 | IRAK-1-4 Inhibitor I 0.009 | ibrutinib -0.01 | [9] 0.001 | ralimetinib 0 | [10] -0.011 | [11] 0.014 | [12] -0.015 | [13] 0.005 | [14] -0.015 | [15] 0.042 | [16] -0.01

Reprinted from the results shown (2 entries):
TBC1D20 isoform 3 (UniProt Q96BZ9)
inactive: erlotinib -0.073 | [1] 0.142 | [2] -0.113 | [3] 0.043 | [4] 0.117 | [5] -0.038 | [6] -0.018 | [7] 0.033 | [8] 0.023 | IRAK-1-4 Inhibitor I 0.132 | ibrutinib 0.078 | [9] -0.016 | ralimetinib 0.001 | [10] -0.14 | [11] -0.082 | [13] 0.05 | [14] -0.171 | [15] 0.019 | [16] -0.005

TCAF2 (UniProt A6NFQ2)
inactive: erlotinib -0.006 | [1] -0.218 | [2] -0.003 | [3] -0.059 | [4] -0.038 | [5] -0.027 | [6] -0.033 | [7] -0.022 | [8] -0.047 | IRAK-1-4 Inhibitor I -0.005 | ibrutinib 0.009 | [9] -0.009 | ralimetinib 0.078 | [10] -0.017 | [11] 0.013 | [12] 0.022 | [13] 0.055 | [14] -0.005 | [15] -0.021 | [16] 0.063

(further entries)

TAF6L (UniProt Q9Y6J9)
inactive: erlotinib -0.013 | [1] 0.174 | [2] -0.077 | [3] 0.005 | [4] 0.025 | [5] 0.055 | [6] 0.055 | [7] 0.022 | [8] -0.104 | IRAK-1-4 Inhibitor I 0.051 | ibrutinib 0.072 | [9] 0.046 | ralimetinib 0.042 | [10] -0.078 | [11] 0.01 | [12] -0.041 | [13] -0.006 | [14] -0.027 | [15] 0.027 | [16] -0.009

TCF25 (UniProt Q9BQ70)
inactive: erlotinib -0.01 | [1] 0.004 | [2] -0.166 | [3] 0.057 | [4] 0.046 | [5] 0.057 | [6] 0.029 | [7] 0.092 | [8] 0.055 | IRAK-1-4 Inhibitor I -0.028 | ibrutinib 0.023 | ralimetinib 0.01 | [10] 0 | [11] 0.038 | [12] 0.014 | [13] -0.091 | [14] -0.029 | [15] 0.052

TANK (UniProt Q92844)
inactive: erlotinib 0 | [1] -0.089 | [2] -0.015 | [3] -0.069 | [4] 0.003 | [5] 0.025 | [6] 0.089 | [7] 0.082 | [8] 0 | IRAK-1-4 Inhibitor I 0.028 | ibrutinib 0.042 | [9] 0.086 | ralimetinib -0.049 | [10] -0.003 | [11] 0.044 | [12] 0.061 | [13] 0.018 | [14] 0 | [15] 0.054 | [16] 0.002

TCHP (UniProt Q9BT92)
inactive: erlotinib 0 | [1] 0.009 | [2] -0.072 | [3] -0.121 | [4] -0.009 | [5] -0.098 | [6] 0.086 | [7] -0.036 | [8] -0.003 | IRAK-1-4 Inhibitor I -0.038 | ibrutinib 0.06 | ralimetinib 0.003 | [10] -0.035 | [11] -0.007 | [12] 0.021 | [13] -0.026 | [14] -0.024 | [15] 0.067

TENT5C (UniProt Q5VWP2)
inactive: erlotinib -0.01 | [1] -0.11 | [2] -0.021 | [3] -0.036 | [4] -0.078 | [5] 0.009 | [6] -0.063 | [7] -0.004 | [8] 0.011 | IRAK-1-4 Inhibitor I 0.015 | ibrutinib 0.059 | [9] -0.111 | ralimetinib -0.017 | [10] -0.03 | [11] 0.015 | [12] -0.021 | [14] 0.049 | [15] -0.029 | [16] -0.076

TAF7 (UniProt Q15545)
inactive: erlotinib -0.039 | [1] -0.01 | [2] -0.027 | [3] 0.01 | [4] -0.008 | [5] 0.001 | [6] 0.024 | [7] -0.022 | [8] -0.026 | IRAK-1-4 Inhibitor I -0.005 | ibrutinib 0.079 | [9] -0.004 | ralimetinib 0.021 | [10] -0.054 | [11] 0.02 | [12] 0 | [13] -0.021 | [14] 0.038 | [15] -0.014 | [16] -0.027

TAF9B (UniProt Q9HBM6)
inactive: erlotinib -0.022 | [1] -0.084 | [2] 0.14 | [3] 0.042 | [4] -0.734 | [5] -0.14 | [6] -0.026 | [7] -0.021 | [8] 0.06 | IRAK-1-4 Inhibitor I 0.024 | ibrutinib 0.285 | [9] 0.061 | ralimetinib 0.005 | [10] 0 | [11] -0.036 | [13] -0.014 | [14] -0.029 | [15] 0.045 | [16] 0.03
